{"source": "patent US20050136040A1", "about": "“Control of gene expression using a complex of an oligonucleotide and a regulatory peptide” (Imperial College Innovations Limited, priority 2001, published 2005)", "system": "β-actin", "assay": "β-actin RT-PCR band quantitation in treated LNCap cells (normaliser)", "type": "cell-based, human", "settings": "3 days", "data": [{"smiles": "CC(=O)O[C@]1(C(C)=O)CC[C@H]2[C@@H]3C=C(Cl)C4=CC(=O)[C@@H]5C[C@@H]5[C@]4(C)[C@H]3CC[C@@]21C", "note": "[Cyproterone Acetate, Cyproterone acetate]", "values": [{"measurement": "beta-actin band quantitation", "setting": "Cyproterone Acetate 0.1 nM", "result": 13278}, {"measurement": "beta-actin band quantitation", "setting": "Cyproterone Acetate 10 nM", "result": 14112}, {"measurement": "beta-actin band quantitation", "setting": "Cyproterone Acetate 1 uM", "result": 11856}, {"measurement": "beta-actin band quantitation", "setting": "Cyproterone Acetate 10 uM", "result": 14691}]}, {"smiles": "C[C@]1(O)CC[C@H]2[C@@H]3CCC4=CC(=O)CCC4=C3C=C[C@@]21C", "note": "[R1881]", "values": [{"measurement": "beta-actin band quantitation", "setting": "R1881 0.01 nM", "result": 8799}, {"measurement": "beta-actin band quantitation Average", "setting": "R1881 0.01 nM", "result": 8799}, {"measurement": "beta-actin band quantitation", "setting": "R1881 1 nM", "result": 14242}, {"measurement": "beta-actin band quantitation Average", "setting": "R1881 1 nM", "result": 14242}, {"measurement": "beta-actin band quantitation", "setting": "R1881 100 nM", "result": 12536}, {"measurement": "beta-actin band quantitation Average", "setting": "R1881 100 nM", "result": 12536}, {"measurement": "beta-actin band quantitation", "setting": "R1881 1 uM", "result": 8424}, {"measurement": "beta-actin band quantitation Average", "setting": "R1881 1 uM", "result": 8424}]}]}
